{
  "source": "paper PMC4564171",
  "about": "(PLoS ONE, 2015)",
  "test_system": "RNA polymerase (core and sigma70 holoenzyme) (Escherichia coli)",
  "assay": "EMSA",
  "conditions": "2.7 uM RNAP, 0.25 uM DNA, unaffected by 100 uM 19615; label: 5'-Cy5",
  "note": "For at least one entry, the source does not settle the construct or the ends of the probe.",
  "data": [
    {"sequence": "GTGCCCTGGTCTGGTTAGGCACCCCAGGCTTTACACTTTATGCTTCCGGCTCGTATAATGTGTGGAATTGTGAG (double strand) [plac probe]", "values": [
      {"measurement": "binding result", "result": "binds"}
    ]}
  ]
}
